# At least one compound was matched to its structure with a doubt left.
# How the values were obtained:
# [1] = system: HCV (JFH-1) secreted by infected Huh-7.5.1 cells; assay: HCV secretion by JFH-1 infected Huh-7.5.1 cells (HCV core antigen ELISA, HCV positive strand RNA qPCR); format: cell-based, Hepatitis C virus; conditions: 24 hours; brefeldin A 2.5 μg/ml
# Procedure: The Huh-7.5.1 human hepatoma cell line and a plasmid containing the JFH-1 genome were kindly provided by Dr. Chisari (Scripps Research Institute, CA) and Dr. Wakita (National Institute of Infectious Diseases, Tokyo) respectively. Huh-7.5.1 cells were cultured in DMEM medium supplemented with 10% FBS, 200 units/ml penicillin and […] streptomycin in a 5% CO2-humidified incubator at 37° C. In vitro transcribed genomic JFH-1 RNA was delivered to cells by liposome-mediated transfection as described by Zhong et al. (2005)(8). Infected Huh-7.5.1 cells were passaged every 3 days and used at passage <15. The presence of HCV in these cells and corresponding supernatants were determined by quantitative Polymerase Chain Reaction (qPCR) and immunofluorescence staining. […]
# Huh-7.5.1 secreted HCV core antigen was detected in the media using Wako Chemicals (Cambridge, Mass.) ORTHO HCV antigen ELISA kit. […]
# Virus samples collected in each experiment were filtered with a 0.45 μm filter and a volume of 100 μL for each sample was heated at 95° C. for 45 min. […] Real time PCR was performed on a Light Cycler LC-24 (Idaho Technology), using SuperScript™ III Platinum® CellsDirect Two-Step qRT-PCR Kits (Invitrogen) for quantitative PCR. […]
# [2] = system: ApoB; assay: ApoB secretion by JFH-1 infected Huh-7.5.1 cells (human ApoB ELISA); format: cell-based; conditions: 24 hours, brefeldin A 2.5 μg/ml
# Procedure: (§1) HCV-infected Huh-7.5.1 cells were plated on a 6-well plate at a density of 1×10^5 cells/cm^2 and cultured overnight in standard medium. Prior to the beginning of the experiment, the cells were washed 3 times with PBS and cultured with DMEM containing 5% lipoprotein-free FBS. Oleate, Insulin, Naringenin, and Brefeldin A were added at this time as described in the text. Following 24 hours of incubation, the plate was gently agitated to release mechanically bound particles, the media was collected, filtered to remove cellular debris, and stored at −80° C. for further analysis. The attached cells were washed 3 times with PBS, harvested, pelleted and stored at −80° C. for further analysis.
# Huh-7.5.1 and primary human hepatocytes secreted ApoB was detected in the media using ALerCHEK, Inc (Portland, Me.) total human ApoB ELISA kit. Media was diluted 1:10 with the specimen diluent, and the assay was carried out according to manufacturer's directions.
# HCV-infected Huh-7.5.1 cells were plated T-25 tissue culture flasks at a density of 1×10^5 cells/cm^2 and cultured overnight in standard medium. Prior to silencing, the cells were washed 3 times with PBS and media was replaced with OptiMEM basal medium. […] Culture media was conditioned by the transfected cells for 24 hours and analyzed as described above.
# [3] = system: HCV (JFH-1) infection of naïve Huh7.5.1 cells; assay: HCV infectivity of cell culture supernatant on naïve Huh7.5.1 cells; format: cell-based, Hepatitis C virus; conditions: supernatant of stimulated infected Huh-7.5.1 cells
# Procedure: The infectivity of the secreted HCV particles was measured as previously described (8). Naïve Huh7.5.1 cells were grown to 80% confluence and exposed to cell culture supernatants diluted 10-fold in culture media. Following 1 hour incubation at 37° C., the media was replaced, and the cells were cultured for 3 additional days. Levels of HCV infection were determined by immunofluorescence staining for HCV core protein. The viral titer is expressed as focus forming units per milliliter of supernatant (ffu/ml).
# [4] = system: HCV (JFH-1) in Huh-7.5.1 cells; assay: Intracellular HCV RNA and core protein in infected Huh-7.5.1 cells; format: cell-based, Hepatitis C virus; conditions: 24 hours stimulation
# Procedure: as §1
# Virus samples collected in each experiment were filtered with a 0.45 μm filter and a volume of 100 μL for each sample was heated at 95° C. for 45 min. The reverse transcription reaction step was performed on a Mastercycler epgrdientS (Eppendorf) instrument using Omniscript and Sensiscript RT Kits (Qiagen). Real time PCR was performed on a Light Cycler LC-24 (Idaho Technology), using SuperScript™ III Platinum® CellsDirect Two-Step qRT-PCR Kits (Invitrogen) for quantitative PCR. For reverse transcription step, 2 μL of sample without RNA extraction were used. For real time PCR, 1 μL of the reverse transcription reactions was used. […]
structure (smiles),measurement,setting,value
"CCCCCCCC/C=C\CCCCCCCC(=O)O [oleate, reference compound]",HCV core protein secretion (in words),[1],significantly upregulated
same,ApoB secretion (in words),[2],significantly upregulated
same,infectivity of the cell supernatant (in words),[3],increased
same,intracellular levels of HCV (positive strand) RNA,[4],remained unchanged

# From patent US20160228575A1, “NARINGENIN COMPLEXES AND METHODS OF USE THEREOF” (THE GENERAL HOSPITAL CORPORATION, priority 2008, published 2016)
